Record: PubChem BioAssay AID1159578 (Peter MacCallum Cancer Centre, 2015)

Aim: 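Genome-wide hunt for genes controlling movement of lymphatic endothelial cells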 (primary screen)
System: human lymphatic endothelial cells
Reagent: siRNA pool against human genes, 40 nM
Time to read-out: 48 h after transfection
Measured: 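High-content imaging of dye-stained cells in a scratch assay measures filled wound area and nuclei per well; duplicate means given as ratio to mock and robust z-score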
Reading the numbers: migration robust z-score: higher = faster migration into the scratch; migration relative to mock: higher = more scratch area covered than mock; nuclei per well: higher = more cells in the well
Hit rule: 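Pools averaging fewer than 3300 nuclei are never called; remaining pools count as changed when migration robust z lies outside -2 to 2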
Calls: active = migration changed; inactive = no migration change, or too few cells
This is one part, drawn at random, of about 18,000 reagents tested. In the full data, about 1,030 (5.7%) were called active. 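Inactive calls also include pools with fewer than 3300 nuclei, whose migration was not assessed.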 Raw values vary from plate to plate and are shown uncorrected. A number with no mark means an inactive call.

gene	migration robust z-score	migration class with cell-count check	migration relative to mock	nuclei per well, duplicate mean
ZNF175 (GeneID 7728)	0.62	migration z between -2 and 2; enough cells	1.04	6705
TEKT1 (GeneID 83659)	0.92	migration z between -2 and 2; enough cells	1.12	5800
ADAMTS1 (GeneID 9510)	-0.78	migration z between -2 and 2; enough cells	0.66	5384
SLC7A6OS (GeneID 84138)	1.12	migration z between -2 and 2; enough cells	1.17	5489
CEP85 (GeneID 64793)	-1.11	migration z between -2 and 2; enough cells	0.6	6063
ZKSCAN8 (GeneID 7745)	-0.62	migration z between -2 and 2; enough cells	0.73	5678
TTC19 (GeneID 54902)	1.39	migration z between -2 and 2; enough cells	1.26	4634
RPL27 (GeneID 6155)	-0.48	migration z between -2 and 2; enough cells	0.76	3760
ZBTB7C (GeneID 201501)	-0.82	migration z between -2 and 2; enough cells	0.68	5408
TRIM9 (GeneID 114088)	0.03	migration z between -2 and 2; enough cells	0.89	6206

In a second layout: results already given.
gene,migration robust z-score,migration class with cell-count check,migration relative to mock,"nuclei per well, duplicate mean"
SLC7A6OS (GeneID 84138),1.12,migration z between -2 and 2; enough cells,1.17,5489
CEP85 (GeneID 64793),-1.11,migration z between -2 and 2; enough cells,0.6,6063

The list goes on.
gene	migration robust z-score	migration class with cell-count check	migration relative to mock	nuclei per well, duplicate mean
RAP1A (GeneID 5906)	0.39	migration z between -2 and 2; enough cells	0.88	4529
PRAMEF16 (retired record) (GeneID 654348)	2.31 (active)	migration z above 2; enough cells	1.48	5094
L3MBTL2 (GeneID 83746)	1.33	migration z between -2 and 2; enough cells	1.06	6554
RDH11 (GeneID 51109)	-3.14 (active)	migration z below -2; enough cells	0.2	6649
MT1M (GeneID 4499)	-0.81	migration z between -2 and 2; enough cells	0.68	5166
LMBR1L (GeneID 55716)	0.68	migration z between -2 and 2; enough cells	1.06	5684
MYOZ3 (GeneID 91977)	-0.43	migration z between -2 and 2; enough cells	0.77	5904
IPO13 (GeneID 9670)	0.5	migration z between -2 and 2; enough cells	1.02	5968
MAGED4B (GeneID 81557)	0.34	migration z between -2 and 2; enough cells	0.98	6356
LTAP1 (GeneID 25912)	0.29	migration z between -2 and 2; enough cells	0.96	5505
DYDC1 (GeneID 143241)	0.77	migration z between -2 and 2; enough cells	1.08	7113
ZNF331 (GeneID 55422)	-0.2	migration z between -2 and 2; enough cells	0.83	5572
OASL (GeneID 8638)	-0.76	migration z between -2 and 2; enough cells	0.66	5064
